By UniProt entry, the sequences of proteins in these tests, tags left out.
UniProt P35462, whole entry, looked up: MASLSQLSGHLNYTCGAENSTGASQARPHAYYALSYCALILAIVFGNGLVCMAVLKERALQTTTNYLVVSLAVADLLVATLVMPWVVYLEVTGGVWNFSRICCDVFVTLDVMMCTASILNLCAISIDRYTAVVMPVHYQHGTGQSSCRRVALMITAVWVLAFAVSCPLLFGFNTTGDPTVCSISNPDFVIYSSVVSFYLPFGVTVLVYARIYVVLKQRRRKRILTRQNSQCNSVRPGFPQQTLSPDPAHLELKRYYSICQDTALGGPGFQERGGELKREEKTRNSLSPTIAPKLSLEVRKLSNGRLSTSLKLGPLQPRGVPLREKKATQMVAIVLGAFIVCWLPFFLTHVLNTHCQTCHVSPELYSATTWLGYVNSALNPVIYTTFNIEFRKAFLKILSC

Where “and” joins values, the source holds several entries; their conditions need not be identical. Equal values may be shown once. About 9,100 (2.5%) of roughly 360,000 compounds were called active. The inconclusive results got no clear call from the source; some entries with a clear call stand among them for comparison. Cut-off read from the data, not from the text of the source: active = max response below about -50%; inconclusive = no clear call, values can overlap the other calls; inactive = above that.
What follows are compounds tested against D(3) dopamine receptor (Homo sapiens) (UniProt P35462) (assay: qHTS of D3 Dopamine Receptor Antagonist: qHTS). Details: D3R cells, DiscoveRx beta-arrestin luminescence, antagonist mode; stronger effect = lower value.
In short: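 Cells plated overnight at 1500 cells/well, then exposed to library compounds with dopamine controls for 90 minutes at 37 degrees C. DiscoveRx reagent added for 30–60 minutes at room temperature; luminescence read, quantitative HTS format.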
O=C(CCN1CCN(Cc2ccccc2)CC1)NNC(=O)c1ccc(Cl)c(Cl)c1 was tested, and the max response, negative = inhibition was inconclusive: -32.2%. With OCc1ccccc1-c1cnc2sc(NCc3ccc(F)cc3)nn12 the max response, negative = inhibition was inactive: 0.214%. For S=C(NCc1ccccc1)Nc1ccc(Oc2ccccc2)cc1, the max response, negative = inhibition was inactive: -15.8%. In the case of CC(=O)Nc1cccc(-c2ccnc3c2CC(C)(C(=O)NCc2ccc(F)c(F)c2)O3)c1 (stereo not given), the max response, negative = inhibition is reported as inconclusive: -35.9%. With O=c1[nH]c(-c2ccccc2)c(-c2ccccc2)o1 the max response, negative = inhibition was inactive: -18.1%. Cc1ccccc1C(=O)Nc1ccc(C(=O)N/N=C/c2ccncc2)cc1 was tested, and the max response, negative = inhibition was inconclusive: -31.5%. With Cc1ccc(/C([O-])=C(/C(=S)NCc2ccc3c(c2)OCO3)[n+]2ccc(N(C)C)cc2)c(C)c1 the max response, negative = inhibition was inactive: -20.5%. For Cc1ccc(N(CCC#N)C(=O)COC(=O)C2CCN(S(=O)(=O)c3ccc4c(c3)OCCO4)CC2)cc1, the max response, negative = inhibition was inconclusive: -49.9%. For CCN(CC)CCN(C(=O)c1cc2ccccc2cc1OC)c1nc2ccc(F)cc2s1, the max response, negative = inhibition was inconclusive: -43.8%. In the case of CCC(=O)N1CCN(c2ccccc2NC(=O)Cc2ccccc2)CC1, the max response, negative = inhibition is reported as inconclusive: -32.2%. CCC(c1nnnn1CCOC)N(Cc1cc2cc(C)c(C)cc2[nH]c1=O)CC1CCCO1 (stereo not given) was tested, and the max response, negative = inhibition was inactive: 9.54%. With Cc1ccc(Cc2c(-c3ccco3)nc3c(C)cc(Br)cn23)cc1 the max response, negative = inhibition was inconclusive: -36.8%. CCOC(=O)C1=C[C@@H](C(C)(C)C)N(S(=O)(=O)c2ccc(C)cc2)[C@H]1c1ccc(OC)cc1 was tested, and the max response, negative = inhibition was inactive: 2.76%. With Cc1ccc(Nc2c(-c3ccccn3)nc3cc(C)ccn23)cc1 the max response, negative = inhibition was active: -88.1%. For COc1cccc(NC(=S)NN=C2CCC(C(C)(C)C)CC2)c1 (stereo not given), the max response, negative = inhibition was inconclusive: -49.1%. CCOc1ccc(/C=C/C2=Cc3c(sc(NC(=O)CSc4n[nH]c(N)n4)c3C#N)C(C)(C)C2)cc1 was tested, and the max response, negative = inhibition was inactive: -19.9%. In the case of C1=C[C@@H]2CCN(Cc3ccccc3)Cc3cccc(c32)C1, the max response, negative = inhibition is reported as inconclusive: -44.9%. For CN(CCOc1cccc2ccccc12)Cc1ccccc1, the max response, negative = inhibition was active: -75.5%. For CN(C)c1cc[n+](CC(=O)Nc2cccc([N+](=O)[O-])c2)cc1, the max response, negative = inhibition was inconclusive: -34.6%. In the case of COCCNC(=O)C1CCCN(C(=O)c2nc3ccccc3s2)CC1 (stereo not given), the max response, negative = inhibition is reported as inconclusive: -43.1%. With COCCNC(=S)NC1CC2CCCC(C1)N2Cc1cccs1 (stereo not given) the max response, negative = inhibition was inconclusive: -33.3%. With COCc1cc(=O)[nH]c(SCC(=O)Nc2ccccc2)n1 the max response, negative = inhibition was inconclusive: -32.7%. With O=[N+]([O-])c1ccc(O)c(/C=N/NC(=S)Nc2ccc(Cl)cc2Cl)c1 the max response, negative = inhibition was inconclusive: -40.2%. For CC(C)c1ccc(NC(=S)NC2CCCCCC2)cc1, the max response, negative = inhibition was inconclusive: -35.6%. Cc1csc(NC(=O)c2ccccc2O)n1 was tested, and the max response, negative = inhibition was inconclusive: -39%. For CCN1CCN(c2ccc(S(=O)(=O)N3CCCCC3)cc2NC(=O)/C=C/c2ccc([N+](=O)[O-])cc2)CC1, the max response, negative = inhibition was inconclusive: -32.3%. With O=C1CCCC2=C1C(c1ccc3c(c1)OCO3)c1c([nH]n(-c3ccccc3)c1=O)N2 (stereo not given) the max response, negative = inhibition was inconclusive: -33.4%. For N#Cc1c(-c2ccc(F)cc2)cc(-c2cccs2)nc1SCC(=O)O, the max response, negative = inhibition was inconclusive: -39.8%. In the case of Cc1ccccc1NC(=O)CCNS(=O)(=O)c1cccc2nsnc12, the max response, negative = inhibition is reported as inconclusive: -35.3%. CCCCC(=O)Nc1cccc(NC(=S)NC(=O)COc2ccccc2Cl)c1 was tested, and the max response, negative = inhibition was inconclusive: -33.6%. CC(=O)Nc1ccc(OCC(O)CN2CCN(c3ccc(C)c(Cl)c3)CC2)cc1 (stereo not given) was tested, and the max response, negative = inhibition was active: -144%. In the case of COc1cc2c(cc1OC)CN(CCC(C)c1ccc(Cl)cc1)CC2 (stereo not given), the max response, negative = inhibition is reported as active: -91.1%. CCOc1ccccc1C(=O)N[C@H](C(=O)OCc1cc([N+](=O)[O-])cc2c1OCOC2)C(C)C was tested, and the max response, negative = inhibition was inactive: 1.21%. With CC(=O)Nc1c(F)c(F)c(F)c(F)c1F the max response, negative = inhibition was inconclusive: -42.4%. For CC(=O)c1ccc(NC(=O)NC2CCCc3ccccc32)cc1 (stereo not given), the max response, negative = inhibition was inconclusive: -38.9%. For CN1CCN(Cc2cc(COCc3ccccc3)c3cccnc3c2O)CC1, the max response, negative = inhibition was inconclusive: -37.4%. For CCOC(=O)c1[nH]c2ccc(OC)cc2c1NC(=O)N1CCOCC1, the max response, negative = inhibition was inconclusive: -32.7%. With O=C(O)Cn1c(O)c(C=Nc2ccccc2)sc1=S the max response, negative = inhibition was inconclusive: -31.7% and active: -62.7%. For N#Cc1ccccc1N=C1CCCN1Cc1ccccc1, the max response, negative = inhibition was inconclusive: -33%. CC(C)c1cc(CN2CCN(CCC#N)CC2)cc(C(C)C)c1O was tested, and the max response, negative = inhibition was inconclusive: -41.1%. In the case of N#C/C(=N\Nc1ccc(S(=O)(=O)N2CCOCC2)cc1)C(N)=S, the max response, negative = inhibition is reported as inconclusive: -43.2%. In the case of CN(C)CCN(Cc1ccccc1)c1ccccn1, the max response, negative = inhibition is reported as inconclusive: -35.4%. CC1CCN(C(=O)c2ncn(C)c2C(=O)N2CCC(C)CC2)CC1 was tested, and the max response, negative = inhibition was active: -51.1%. For CCN(CC)CCn1c(=S)[nH]c2ccc(Cl)cc2c1=O, the max response, negative = inhibition was inconclusive: -47.8%. For O=C1CCN(S(=O)(=O)c2ccccc2)CCN1CCOCc1ccc(Cl)cc1, the max response, negative = inhibition was inconclusive: -33.5%. CCOC(=O)c1c(C)[nH]c(C)c1C(=O)COC(=O)c1cc(OC)cc(OC)c1 was tested, and the max response, negative = inhibition was inactive: -20.4%. With CCCc1cc(=O)oc2cc(OCC(=O)N3C[C@H]4C[C@@H](C3)c3cccc(=O)n3C4)c(Cl)cc12 the max response, negative = inhibition was inconclusive: -36.1%. In the case of CCOC(=O)C1=C(C)N(C)C(C)=C(C(=O)OCC)C1c1cccnc1, the max response, negative = inhibition is reported as inconclusive: -49.6%. In the case of Cc1ccccc1NC(=O)COC(=O)C1C2CC3OC(=O)C1C3C2 (stereo not given), the max response, negative = inhibition is reported as inconclusive: -30.4%. For COc1ccccc1N1CCN(CCN(C(=O)C2CCCCC2)c2ccccn2)CC1, the max response, negative = inhibition was active: -97.4% and active: -84.6%. CCCCc1nnc(NC(=O)c2oc3ccccc3c2C)s1 was tested, and the max response, negative = inhibition was inactive: 16.6%. For O=C(C1CCN(S(=O)(=O)c2cccc3nsnc23)CC1)N1CCn2c1nc1ccccc12, the max response, negative = inhibition was active: -101%. In the case of CCC(CC)C1C(C#N)=C(N)SC(N)=C1C#N, the max response, negative = inhibition is reported as active: -60%. For Cc1onc(-c2ccccc2)c1C(=O)Nc1sccc1C#N, the max response, negative = inhibition was inactive: 20.1%. O[C@H]1C[C@H](c2ccc(Cl)cc2)N(CC2CCCCC2)C[C@@H]1n1cc(C2CC2)nn1 was tested, and the max response, negative = inhibition was inactive: 4.16%. Cc1cc(C)c(C(=O)c2ccc(C(=O)N(C(C)C)C(C)C)cc2)c(C)c1 was tested, and the max response, negative = inhibition was inconclusive: -35.9%. In the case of NC(=S)Nc1cccc2cc3ccccc3cc12, the max response, negative = inhibition is reported as inconclusive: -34.9%. For CCN1CCN(c2ccc(S(=O)(=O)N3CCCCC3)cc2NC(=O)c2ccc([N+](=O)[O-])s2)CC1, the max response, negative = inhibition was inconclusive: -41.3%. With COc1cc2c(cc1OC)C(=O)N1[C@H]3c4cc(C)ccc4OC[C@@H]3[C@H](c3ccccc3)[C@]1(C)C(=O)N2 the max response, negative = inhibition was inactive: -0.467%. CC(C)c1ccc(NS(=O)(=O)c2ccc3c(c2)NC(=O)CO3)cc1 was tested, and the max response, negative = inhibition was inactive: 18.8%. In the case of CCOC(=O)N1CCC(N2CCN(c3cc(C)ccc3C)CC2)CC1, the max response, negative = inhibition is reported as inconclusive: -32.2%. Cc1cccc(C)c1NC(=O)C(c1cccc2ccccc12)n1c(=O)c(-c2ccco2)nc2ccccc21 (stereo not given) was tested, and the max response, negative = inhibition was inconclusive: -31.6%. Cc1ccccc1NS(=O)(=O)c1ccc(NC(=O)N2CCCCC2)cc1 was tested, and the max response, negative = inhibition was inconclusive: -30.1%. For COc1cc(/C=C/CN2CCN(Cc3ccc(C)o3)C(CCO)C2)ccc1O (stereo not given), the max response, negative = inhibition was active: -61.5%. COc1ccc(C)cc1S(=O)(=O)N(CC(=O)NCc1ccc(Cl)cc1)Cc1ccccc1 was tested, and the max response, negative = inhibition was inactive: -11.1%. For COc1ccccc1N1CCN(CCC(=O)Nc2cccc(F)c2)CC1, the max response, negative = inhibition was active: -111%. For COC(=O)c1ccc(NC(=S)NNC(=O)c2ccccc2)cc1, the max response, negative = inhibition was inconclusive: -30.3%. In the case of CN1CC=C2C(C#N)=C(N)C(C#N)(C#N)C(Cc3ccccc3)C2C1 (stereo not given), the max response, negative = inhibition is reported as inconclusive: -36.9%. COc1ccc2c(c1)C1(Nc3ccccc3-c3nc4ccccc4n31)C(=O)N2C (stereo not given) was tested, and the max response, negative = inhibition was inconclusive: -41.2%. In the case of COc1ccc(-c2coc3cc(OC(C)=O)ccc3c2=S)cc1, the max response, negative = inhibition is reported as inconclusive: -34.2%. In the case of Cc1ccc(C(C)C)c(OCC(O)CN2CC(C)OC(C)C2)c1 (stereo not given), the max response, negative = inhibition is reported as inconclusive: -43.9%. For c1ccc(CSc2ccc(-c3cccs3)nn2)nc1, the max response, negative = inhibition was inconclusive: -36.3%. For COC(=O)C1=C(C(=O)OC)[C@@H]2N(C)c3ccccc3[C@@]23C[C@@H](CO)N(C(=O)C2CCC2)C3=N1, the max response, negative = inhibition was active: -52.6%. For COc1ccc(CCNS(=O)(=O)c2ccc(-n3cnnn3)c(OC)c2)cc1OC, the max response, negative = inhibition was inconclusive: -35.6%. For O=C(CN1CCN(S(=O)(=O)c2cc(Cl)ccc2Cl)CC1)Nc1ccc2c(c1)OCCO2, the max response, negative = inhibition was inconclusive: -49.1%. For CCN1CC=C2C(C#N)=C(N)C(C#N)(C#N)C(CCc3ccccc3)C2C1 (stereo not given), the max response, negative = inhibition was inconclusive: -45.9%. For O=P(Cc1nnco1)(c1ccccc1)c1ccccc1, the max response, negative = inhibition was active: -62.7%. CCOc1ccc(-n2c(O)c(/C=N/Nc3nc(C)cc(C)n3)c3ccccc3c2=O)cc1 was tested, and the max response, negative = inhibition was active: -56.4%. For Cc1cc(NC(=O)/C(C#N)=C/c2ccc(-c3cccc(C(F)(F)F)c3)o2)n(-c2ccccc2)n1, the max response, negative = inhibition was inactive: -7.2%. In the case of C/C(O)=C\c1nc(=O)c2c(C)cc(C)nc2n1-c1ccccc1, the max response, negative = inhibition is reported as inconclusive: -41.2%. In the case of COC(=O)Cc1ccc(OC2(C)CCN(Cc3csc4ccccc34)C2)cc1 (stereo not given), the max response, negative = inhibition is reported as active: -85.8%. With COc1cccc(C(=O)N2CCN(Cc3ccccn3)CC2)c1OC the max response, negative = inhibition was inconclusive: -31.6%. With COc1ccc(Br)cc1CN1CCCC(C(=O)N2CCCCCC2)C1 (stereo not given) the max response, negative = inhibition was inconclusive: -32.3%. For CN1C2CCC1CC(OC(c1ccccc1)c1ccccc1)C2 (stereo not given), the max response, negative = inhibition was inconclusive: -48%. For CSCCC(NS(=O)(=O)/C=C/c1ccccc1)C(=O)O (stereo not given), the max response, negative = inhibition was inconclusive: -41.3%.

From PubChem BioAssay AID652054 (National Center for Advancing Translational Sciences (NCATS), 2013)
% is set by controls: 0 for no effect and ±100 for the full control effect.
